These are literature values, as cited in PMC8288134, “Synthesis, potential antitumor activity, cell cycle analysis, and multitarget mechanisms of novel hydrazones incorporating a 4-methylsulfonylbenzene scaffold: a molecular docking study” (Journal of Enzyme Inhibition and Medicinal Chemistry, 2021).

In general, GI50 refers to the concentration giving 50% growth inhibition.

Test systems include EKVX; SW-620; SNB-75; OVCAR-3; PC-3; MCF7.
Holding throughout (set-up): method as in https://dtp.cancer.gov/dtpstandard/dwindex/index.jsp
Settings in all cases: reference drugs, ref https://dtp.cancer.gov/dtpstandard/dwindex/index.jsp; cited from earlier work

Take `COc1cc2ncnc(Nc3ccc(F)c(Cl)c3)c2cc1OCCCN1CCOCC1` [Gefitinib, gefitinib]: the GI50 with EKVX was 0.0501 µM; in the data set with SW-620, 5.01 µM; with SNB-75 it was 5.01 µM; in the data set on OVCAR-3, 5.01 µM; in the data set on PC-3, 5.01 µM; in the data set on MCF7, 5.01 µM.
